Data reported in paper doi:10.1101/221226.
These are yes or no findings as the source states them, for the method shown. In cells and extracts the contact can be indirect. Some entries that bind do so weakly or less than the wild type.

Sequences of proteins named here, by UniProt entry; tags and fusion partners are left off. A change or cut given only in a name is not applied to a line headed by its entry. Residues count along the entry.
UniProt P0DPK3, 26-275, stated change not applied: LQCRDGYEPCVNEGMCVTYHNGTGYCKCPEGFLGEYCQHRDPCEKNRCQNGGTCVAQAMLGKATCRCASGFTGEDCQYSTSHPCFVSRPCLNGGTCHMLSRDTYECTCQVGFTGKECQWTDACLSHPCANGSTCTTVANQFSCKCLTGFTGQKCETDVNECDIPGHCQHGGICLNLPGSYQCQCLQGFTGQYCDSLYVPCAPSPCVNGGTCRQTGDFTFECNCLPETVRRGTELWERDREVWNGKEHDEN
UniProt Q7Z3S9, whole entry: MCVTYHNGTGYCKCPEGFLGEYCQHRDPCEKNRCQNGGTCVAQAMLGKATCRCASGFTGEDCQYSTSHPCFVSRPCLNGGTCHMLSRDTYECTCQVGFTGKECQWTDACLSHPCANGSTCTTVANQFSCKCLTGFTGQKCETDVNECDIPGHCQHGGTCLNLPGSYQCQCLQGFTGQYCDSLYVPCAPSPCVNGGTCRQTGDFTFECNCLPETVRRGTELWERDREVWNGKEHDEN
UniProt Q04721, 26-2471: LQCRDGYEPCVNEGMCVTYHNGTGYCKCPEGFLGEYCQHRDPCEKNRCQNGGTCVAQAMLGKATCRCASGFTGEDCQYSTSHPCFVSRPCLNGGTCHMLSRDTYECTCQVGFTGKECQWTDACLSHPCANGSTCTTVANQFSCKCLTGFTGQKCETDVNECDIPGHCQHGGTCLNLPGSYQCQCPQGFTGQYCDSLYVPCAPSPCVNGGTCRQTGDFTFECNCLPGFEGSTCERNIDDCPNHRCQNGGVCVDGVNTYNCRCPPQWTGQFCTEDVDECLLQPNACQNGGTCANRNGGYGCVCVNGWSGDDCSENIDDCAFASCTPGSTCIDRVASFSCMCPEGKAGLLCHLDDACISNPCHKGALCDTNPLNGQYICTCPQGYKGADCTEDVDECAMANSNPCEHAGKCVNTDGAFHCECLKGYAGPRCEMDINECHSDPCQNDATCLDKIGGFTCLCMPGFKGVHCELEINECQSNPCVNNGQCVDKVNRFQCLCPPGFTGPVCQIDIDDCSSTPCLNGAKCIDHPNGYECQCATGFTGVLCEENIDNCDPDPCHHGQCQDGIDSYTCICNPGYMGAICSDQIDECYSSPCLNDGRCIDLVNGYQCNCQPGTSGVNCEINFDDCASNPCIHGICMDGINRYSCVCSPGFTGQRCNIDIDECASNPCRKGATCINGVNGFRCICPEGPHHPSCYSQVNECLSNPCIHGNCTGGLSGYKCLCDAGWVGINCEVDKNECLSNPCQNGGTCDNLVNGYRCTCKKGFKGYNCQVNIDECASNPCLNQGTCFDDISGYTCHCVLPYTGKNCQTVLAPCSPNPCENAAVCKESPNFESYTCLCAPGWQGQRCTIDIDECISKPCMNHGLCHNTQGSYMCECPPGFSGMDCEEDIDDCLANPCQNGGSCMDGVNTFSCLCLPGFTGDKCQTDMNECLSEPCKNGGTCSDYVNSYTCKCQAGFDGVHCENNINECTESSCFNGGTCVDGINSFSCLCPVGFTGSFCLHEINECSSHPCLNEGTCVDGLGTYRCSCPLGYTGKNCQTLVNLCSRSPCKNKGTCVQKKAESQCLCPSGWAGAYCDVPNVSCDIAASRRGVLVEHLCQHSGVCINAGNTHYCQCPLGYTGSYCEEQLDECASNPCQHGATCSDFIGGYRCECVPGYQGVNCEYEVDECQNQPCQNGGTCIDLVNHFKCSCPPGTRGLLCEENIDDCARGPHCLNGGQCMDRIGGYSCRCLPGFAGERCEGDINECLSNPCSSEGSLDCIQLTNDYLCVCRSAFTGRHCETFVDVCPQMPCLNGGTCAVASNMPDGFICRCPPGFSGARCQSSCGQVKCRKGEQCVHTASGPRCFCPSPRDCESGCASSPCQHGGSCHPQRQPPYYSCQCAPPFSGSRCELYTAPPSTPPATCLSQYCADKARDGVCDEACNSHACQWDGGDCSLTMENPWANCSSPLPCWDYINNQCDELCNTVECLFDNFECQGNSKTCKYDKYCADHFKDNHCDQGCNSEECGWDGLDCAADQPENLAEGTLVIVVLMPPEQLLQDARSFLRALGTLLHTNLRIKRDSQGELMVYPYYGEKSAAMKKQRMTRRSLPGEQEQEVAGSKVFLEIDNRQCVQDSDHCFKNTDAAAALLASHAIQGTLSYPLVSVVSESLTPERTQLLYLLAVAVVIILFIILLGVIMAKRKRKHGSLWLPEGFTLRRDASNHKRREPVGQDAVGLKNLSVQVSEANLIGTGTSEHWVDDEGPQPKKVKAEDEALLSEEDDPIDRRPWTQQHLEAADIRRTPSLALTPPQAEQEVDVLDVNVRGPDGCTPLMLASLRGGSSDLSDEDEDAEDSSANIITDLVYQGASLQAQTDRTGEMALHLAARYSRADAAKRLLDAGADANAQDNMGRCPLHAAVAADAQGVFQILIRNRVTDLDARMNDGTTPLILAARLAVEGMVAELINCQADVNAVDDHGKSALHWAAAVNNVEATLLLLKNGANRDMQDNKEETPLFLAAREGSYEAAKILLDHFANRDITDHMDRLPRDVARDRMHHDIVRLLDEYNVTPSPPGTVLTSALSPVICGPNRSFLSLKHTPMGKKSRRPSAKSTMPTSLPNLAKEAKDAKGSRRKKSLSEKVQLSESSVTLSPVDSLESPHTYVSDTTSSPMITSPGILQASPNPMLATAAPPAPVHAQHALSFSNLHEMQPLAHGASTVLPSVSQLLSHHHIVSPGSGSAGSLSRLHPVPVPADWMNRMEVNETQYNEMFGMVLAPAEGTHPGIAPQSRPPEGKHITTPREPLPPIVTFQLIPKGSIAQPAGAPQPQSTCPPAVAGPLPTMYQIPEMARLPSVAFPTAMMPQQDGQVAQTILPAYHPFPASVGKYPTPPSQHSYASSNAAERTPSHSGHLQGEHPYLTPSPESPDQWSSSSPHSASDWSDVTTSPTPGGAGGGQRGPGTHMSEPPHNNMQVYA

Key:
Assay in all cases: co-IP
[1] = target: HA-tagged NOTCH2NL^L,T197I (long NOTCH2NL with Thr→Ile substitution) (human) (UniProt P0DPK3)
[2] = target: HA-tagged NOTCH2NL^Sh (short NOTCH2NL) (human) (UniProt Q7Z3S9)
[3] = target: myc-tagged NOTCH2 (human) (UniProt Q04721)

binding [1]	binding [2]	binding [3]	Substance
binds	binds	–	myc-tagged NOTCH2 (from UniProt Q04721 26-2471) (receptor)
–	–	binds	HA-tagged NOTCH2NL^Sh (short NOTCH2NL) (from UniProt Q7Z3S9 1-236)
–	–	binds	HA-tagged NOTCH2NL^L,T197I (long NOTCH2NL with Thr→Ile substitution) (from UniProt P0DPK3 26-275)
